From PubChem BioAssay record AID504749 (NCATS, 2011).

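Malaria parasite (P. falciparum) lines kept in red blood cells; parasite DNA is measured by SYBR Green fluorescence after lysis, 72 h after compound addition.
Each compound was titrated across a series from about 0.000037 to 29 µM.
The number is the fitted AC50, the concentration giving a half-maximal change in signal; a lower value means higher potency, whether the curve shows a decrease or an increase.
Calls follow the curve class and fit quality: every row here is inconclusive, covering signal-raising curves and weak, poorly fitted, partial or highest-dose-only inhibition curves.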

Values are in µM.
Every entry below has the call inconclusive.
Only part of the assay is shown, chiefly results filed as inconclusive.
A potency from a partial, single-point or poor curve is only a rough figure.

With CNC1=CN(O)C(c2ccccc2)=c2cc(Cl)ccc2=N1 [CP286] the assay gave Potency 17.78 µM (inhibitor, single point). With CNC1=CN(O)C(c2ccccc2)=c2cc(Cl)ccc2=N1 [ECU] the assay gave Potency 11.22 µM (inhibitor, single point). For CNC1=CN(O)C(c2ccccc2)=c2cc(Cl)ccc2=N1 [SC27B] the result was Potency 7.943 µM (inhibitor, partial curve). For CNC1=CN(O)C(c2ccccc2)=c2cc(Cl)ccc2=N1 [AA1029] the result was Potency 5.012 µM (inhibitor, partial curve, poor fit). With CNC1=CN(O)C(c2ccccc2)=c2cc(Cl)ccc2=N1 [PAD] the assay gave Potency 17.78 µM (inhibitor, single point). CNC1=CN(O)C(c2ccccc2)=c2cc(Cl)ccc2=N1 [HB3] gave Potency 11.22 µM (inhibitor, single point). With CNC1=CN(O)C(c2ccccc2)=c2cc(Cl)ccc2=N1 [7G8] the assay gave Potency 10 µM (inhibitor, single point).

CNC1=CN(O)C(c2ccccc2)=c2cc(Cl)ccc2=N1 [CP247] gave Potency 10 µM (inhibitor, partial curve). With CNC1=CN(O)C(c2ccccc2)=c2cc(Cl)ccc2=N1 [DFO2036] the assay gave Potency 17.78 µM (inhibitor, single point). CNC1=CN(O)C(c2ccccc2)=c2cc(Cl)ccc2=N1 [CP335] gave Potency 19.01 µM (inhibitor, single point). CNC1=CN(O)C(c2ccccc2)=c2cc(Cl)ccc2=N1 [CP203] read Potency 16.94 µM (inhibitor, single point). COc1ccc2nc(NC(=O)Nc3ccccc3)sc2c1 [W2] gave Potency 12 µM (inhibitor, single point). COc1ccc2nc(NC(=O)Nc3ccccc3)sc2c1 [CP291] gave Potency 21.33 µM (inhibitor, single point). Result for COc1ccc2nc(NC(=O)Nc3ccccc3)sc2c1 [CP247] was Potency 8.912 µM (inhibitor, single point).

COc1ccc2nc(NC(=O)Nc3ccccc3)sc2c1 [GB4] read Potency 7.569 µM (inhibitor, partial curve). COc1ccc2nc(NC(=O)Nc3ccccc3)sc2c1 [CP215] gave Potency 15.1 µM (inhibitor, single point). COc1ccc2nc(NC(=O)Nc3ccccc3)sc2c1 [CP203] gave Potency 8.492 µM (inhibitor, partial curve, poor fit). With COc1ccc2nc(NC(=O)Nc3ccccc3)sc2c1 [3D7] the assay gave Potency 11.22 µM (inhibitor, single point). Result for COc1ccc2nc(NC(=O)Nc3ccccc3)sc2c1 [CP329] was Potency 10.69 µM (inhibitor, partial curve, poor fit). COc1ccc2nc(NC(=O)Nc3ccccc3)sc2c1 [CP211] gave Potency 9.528 µM (inhibitor, partial curve, poor fit).

For reference, 2 entries once more:

structure	setting	Potency (µM)	remark
COc1ccc2nc(NC(=O)Nc3ccccc3)sc2c1	CP203	8.492	inhibitor, partial curve, poor fit
CNC1=CN(O)C(c2ccccc2)=c2cc(Cl)ccc2=N1	PAD	17.78	inhibitor, single point